Experimental data published in PubChem BioAssay AID493014 (National Center for Advancing Translational Sciences (NCATS), 2011).
The other results are listed elsewhere or left out. The main result of the screen is listed elsewhere. These columns were measured beside it and carry no call. Most of these compounds were active or inconclusive in the main read-out, so they are no random draw. Words in brackets tell the shape of the fitted curve; partial curves, single points and poor fits give uncertain potencies.

Assay: qHTS Assay to Find Inhibitors of Chronic Active B-Cell Receptor Signaling
Settings: ABC-DLBCL IkBa-CBG/CBR reporter, luminescence ratio (green luciferase fused to IkBa over red control in TMD8 lymphoma cells), 4 h
Outline: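 Doxycycline induced both beetle luciferases in TMD8 lymphoma cells; IKK-driven degradation limits the IkappaBalpha-fused green signal, while red luminescence normalises for cell number and nonspecific effects. Compounds tested up to 46 uM, 4 hrs.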

[1] = measured here: CBR red luminescence, cell number

Row | Structure (SMILES) | AC50 [1] | AC50 (measured here: IkBa-CBG green luminescence)
1 | Cc1nn(-c2ccccc2)c(Cl)c1/C=N/O | 2.31 µM [rising, full curve, poor fit] | 
2 | CCN1CC=C2C(C#N)=C(N)C(C#N)(C#N)[C@H](c3ccoc3)[C@H]2C1 | 0.1 µM [falling, full curve, poor fit] | 
3 | COc1ccccc1C(=O)NNC(=O)C(=O)NC1CCCCC1 | 35.5 µM [falling, single point] | 
4 | CC1=C(C(=O)OC(C)(C)C)C(c2ccc3ccccc3c2)NC(=O)N1C (configuration not stated) | 11.2 µM [falling, partial curve, poor fit] | 
5 | S=C(NNc1nc(Nc2ccccc2)nc(N2CCCCC2)n1)NC1CCCCC1 | 14.1 µM [falling, single point] | 
6 | CSc1nsc2nc(=O)c(/C=C3\C=Nc4ccccc43)c(N)n12 | 25.1 µM [falling, single point] | 
7 | CC(=O)n1nc(-c2cccc(C)c2)nc1SCC(=O)Nc1ccccc1 | 14.6 µM [falling, partial curve] | 
8 | O=S1(=O)CCOCCCN1Cc1ccccc1F | 6.31 µM [rising, single point] | 
9 | O=C1CC(c2ccc(O)cc2)Oc2ccccc21 (configuration not stated) | 0.184 µM [rising, full curve] | 
10 | O=C(NCCCCc1ccccc1)c1cc([N+](=O)[O-])cc([N+](=O)[O-])c1 | 17.8 µM [rising, partial curve, poor fit] | 
11 | COc1ccc(OC)c(NC(=O)c2ccccc2N(Cc2ccccc2)S(C)(=O)=O)c1 | 5.01 µM [rising, partial curve, poor fit] | 
12 | CC1(C)CC(CCC(=O)NC(=S)Nc2ccccc2Cl)C(=O)O1 (configuration not stated) | 10 µM [falling, partial curve] | 
13 | Clc1ccc(-c2cc(C3CCNCC3)[nH]n2)cc1 | 35.5 µM [falling, single point] | 
14 | Cc1ccc(-n2c(=O)cc(N3CCN(Cc4ccccc4)CC3)[nH]c2=O)cc1 | 16.4 µM [rising, single point] | 
15 | COC(=O)c1ccc(COc2ccc(C(C)(C)C)cc2)o1 | 3.98 µM [rising, single point] | 
16 | O=C(c1cc(-c2ccc(Br)cc2)on1)N1CCc2ccccc2C1 | 15.8 µM [rising, single point] | 
17 | Cc1ccc(C)c(NC(=O)CSc2nnc(CCCCCNC(=O)OC(C)(C)C)o2)c1 | 29.1 µM [falling, single point] | 
18 | CCCCSc1nc2sc3c(c2c(=O)[nH]1)CCC3 | 1.64 µM [rising, partial curve, poor fit] | 
19 | CN(C)c1ccc(/C=N/NC(=O)c2ccc3c(c2)OCO3)cc1 | 7.08 µM [falling, partial curve, poor fit] | 
20 | CC(=O)C1=C(C)N(c2ccccc2)C(=O)C1(NS(=O)(=O)c1ccc(N)cc1)C(F)(F)F (configuration not stated) | 12.6 µM [rising, partial curve] | 
21 | COc1cc(SC)ccc1C(=O)Nc1cccc(C)n1 | 11.2 µM [falling, single point] | 

Row | Structure (SMILES) | AC50 [1] | AC50 (measured here: IkBa-CBG green luminescence)
22 | CCOC(=O)c1cnn(-c2cc(C)nc3c(-c4ccccc4)cnn23)c1N | 25.1 µM [rising, partial curve, poor fit] | 
23 | CCCc1cc(=O)[nH]c(SCc2ccc(F)cc2)n1 | 11.2 µM [falling, partial curve] | 
24 | Cc1cccc(NC(=O)N2CCCC2C(=O)Nc2ccccc2)c1 (configuration not stated) | 35.5 µM [rising, single point] | 
25 | CCOC(=O)N1CCN(C(=O)COc2ccccc2OC)CC1 | 35.5 µM [rising, single point] | 
26 | CCN(CC)C(=O)CN(c1ccc(C)cc1)S(=O)(=O)c1ccc(SC)cc1 | 1.58 µM [falling, partial curve] | 
27 | COc1ccc(C(=O)Nc2ccc(C)cn2)cc1S(=O)(=O)N1CCCc2ccccc21 | 0.82 µM [falling, partial curve] | 
28 | O=C(c1ccccc1)c1c[nH]c(C(=O)C(Cl)(Cl)Cl)c1 | 11.2 µM [falling, partial curve] | 
29 | Cc1c(CCOC(=O)c2ccc([N+](=O)[O-])cc2)sc[n+]1CC(=O)c1ccccc1 | 0.631 µM [rising, partial curve] | 
30 | C/C(CC(=O)Nc1ccc(C)c(Cl)c1)=N\NC(=O)Cc1cccs1 | 31.6 µM [falling, single point] | 
31 | CCOc1ccccc1NC(=O)C(=O)/C=C(\O)c1cc(OC)ccc1OC | 1.16 µM [falling, partial curve, poor fit] | 
32 | CCN(Cc1ccc(C#CCCO)cc1)CC1CCCN(CCc2cccc(OC)c2)C1 (configuration not stated) | 20 µM [falling, partial curve, poor fit] | 
33 | Cc1c(C(=O)Nc2nnc(C(F)(F)F)s2)oc2ccccc12 | 6.31 µM [falling, full curve] | 
34 | COc1cc2c3c(c1)C(C)=CC(C)(C)N3C(=O)C2=O |  | 20 µM [falling, partial curve, poor fit]
35 | COc1ccc(NC(=O)COC(=O)/C=C/c2ccc(OC)c(S(=O)(=O)N3CCOCC3)c2)cc1 | 7.31 µM [falling, partial curve] | 
36 | Cc1ccccc1-c1cc(-c2ccccc2O)n[nH]1 | 29.1 µM [rising, single point] | 
37 | Cc1cc(=O)oc(C)c1C(=O)NCCC1=CCCCC1 | 0.00517 µM [rising, full curve, poor fit] | 
38 | Cc1ccc(-n2ncc3c(N4CCN(c5ccccc5)CC4)ncnc32)c(C)c1 | 7.08 µM [falling, partial curve, poor fit] | 
39 | CSc1ccc(NC(=O)CSc2nc3[nH]c(=O)cc(O)c3s2)cc1 | 23.1 µM [falling, partial curve] | 
40 | COc1cccc(C(=O)NOCc2ccccc2)c1OC | 8.2 µM [rising, partial curve, poor fit] | 
41 | O=C1NC[C@H](Cc2ccccc2)N(CC2CCCCC2)C1=O | 2 µM [rising, full curve, poor fit] | 
42 | COC(=O)Cn1c(=NC(=O)c2cc(OC)cc(OC)c2)sc2cc(OC)ccc21 | 2.06 µM [falling, full curve] | 

3 structures from above, arranged by formula weight, falling:
Row | Structure (SMILES) | AC50 [1] | AC50 (measured here: IkBa-CBG green luminescence)
27 | COc1ccc(C(=O)Nc2ccc(C)cn2)cc1S(=O)(=O)N1CCCc2ccccc21 | 0.82 µM [falling, partial curve] | 
41 | O=C1NC[C@H](Cc2ccccc2)N(CC2CCCCC2)C1=O | 2 µM [rising, full curve, poor fit] | 
34 | COc1cc2c3c(c1)C(C)=CC(C)(C)N3C(=O)C2=O |  | 20 µM [falling, partial curve, poor fit]
